# Measurements taken from patent publication US20260151347A1, “CELL-DERIVED MICROPARTICLE DELIVERY SYSTEM AND USES THEREOF” (priority 2021, published 2026).
# Some of these results come from one statement about several compounds together.
# Assay: Payload release kinetics from permeabilized cell MPs (transwell)
# Assay type: physicochemical
# Conditions: after 4 hours
compound,measurement,value
Cc1nnc(C(=O)NC(C)(C)c2nc(C(=O)NCc3ccc(F)cc3)c(O)c(=O)n2C)o1 [Raltegravir],drug released,80-90%
